Measurements: PubChem BioAssay AID504444 (National Center for Advancing Translational Sciences (NCATS), 2011)
Among all 360,000 compounds or so, about 7,500 (2.1%) were called active. Inconclusive results, whose numbers are uncertain, are shown with a selection of clear calls. The call rests on the fitted dose curve; in most records, active means well fitted inhibition curve with a large enough effect; inconclusive means small, poorly fitted or top-dose-only effect, or effect the other way; inactive means flat fitted curve, though single readings scatter. Potencies of inconclusive entries are doubtful fits and often do not repeat.

Test: Nrf2 qHTS screen for inhibitors; further: nearly all actives have a fitted effect of over 60% in size
Conditions: A549 ARE-Fluc reporter, luciferase luminescence, 18-24 h; series mostly up to 46 µM
Procedure, shortened: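 A549 ARE_Fluc cells, 5000/well, 5% FBS OPTI-MEM; compounds in dose-response, 18-24 h at 37 °C/5% CO2; CellTiter-Fluor viability read (Ex 405/Em 525), then BugLite luciferase luminescence = Nrf2 activity.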
Potency means the concentration at half of the fitted maximal effect.

| Structure (SMILES) | Potency |
| --- | --- |
| COc1cccc(NC(=O)N(Cc2cn(C)c3ccccc23)C2CCCCCC2)c1 | inconclusive: 6.51 µM [activator, single point] |
| C[C@H](NC(N)=O)C(=O)Nc1ccc(OCc2ccccc2)cc1 | inconclusive: 16.4 µM [activator, partial curve, poor fit] |
| O=[N+]([O-])c1ccc(O)c(/C=N\N=C2c3ccccc3-c3ccccc32)c1 | inconclusive: 29.1 µM [falling, single point] |
| CC1CN(S(=O)(=O)c2ccc(C(=O)Nc3nc(-c4cc5ccccc5o4)cs3)cc2)CC(C)O1 (configuration not stated) | active: 3.66 µM |
| O=C(NCCCn1ccnc1)c1nc(Cn2cc([N+](=O)[O-])cn2)no1 | inconclusive: 4.61 µM [activator, full curve, poor fit] |
| O=C(CCc1ccccc1)NN1C(=O)C2C3C=CC(O3)C2C1=O (configuration not stated) | inactive |
| Nc1cccc(C(=O)Nc2ccc3nc(-c4cccnc4)[nH]c3c2)c1 | inconclusive: 29.1 µM [activator, single point] |
| Cc1cccc(CN2CCN(CC(=O)Nc3c(C)cccc3C)S2(=O)=O)c1 | inconclusive: 29.1 µM [activator, single point] |
| COc1cc2c(cc1NC(=O)C(C)OC(=O)C1CC(=O)N(Cc3ccco3)C1)oc1ccccc12 (configuration not stated) | inconclusive: 29.1 µM [activator, single point] |
| O=C1N=C(N2CCOCC2)S/C1=C/c1ccc(-c2ccccc2Cl)o1 | inconclusive: 2.91 µM [falling, full curve, poor fit] |
| CCc1nnc(NC(=O)CCC(=O)N2CCN(c3ccccn3)CC2)s1 | inactive |
| Cc1ccccc1Cn1cc(CCC(=O)NCc2cccc(Br)c2)c2ccccc21 | inconclusive: 18.4 µM [falling, single point] |
| Cc1ccc(NC(CC(=O)c2ccccc2)C(=O)O)cc1Cl (configuration not stated) | inconclusive: 11.6 µM [activator, partial curve] |
| CCN1C(=O)[C@H]2[C@@H](c3ccc(SC4CCCCC4)cc3)N[C@@](CC(C)C)(C(=O)OC)[C@H]2C1=O | active: 20.6 µM |
| O=C(Nc1cccc(C(F)(F)F)c1)C1CCN(S(=O)(=O)c2ccc(N3CCCC3=O)cc2)CC1 | active: 13 µM |
| Cc1nc2c(-c3ccc(Cl)cc3)cnn2c2c1CCC2 | inconclusive: 29.1 µM [activator, partial curve, poor fit] |
| COc1ccc(C2C(C#N)=C(N)Oc3c2oc(CO)cc3=O)c(OC)c1OC (configuration not stated) | inconclusive: 23.1 µM [activator, single point] |
| Cc1ccc(NC(=O)CN2CCC(C(=O)c3ccc4c(c3)OCCO4)CC2)cc1 | inconclusive: 20.6 µM [falling, partial curve, poor fit] |
| CCCCOc1cccc(C(=O)N(Cc2ccc(Br)o2)C2CCS(=O)(=O)C2)c1 (configuration not stated) | inactive |
| OC1(c2ccc(OC(F)F)cc2)CSC(=Nc2cccnc2)N1Cc1ccco1 (configuration not stated) | inconclusive: 25.9 µM [falling, partial curve, poor fit] |
| Cc1ccc([C@H]2C(C(=O)O)=CC[C@@H](c3cccs3)N2S(=O)(=O)c2ccc(C)cc2)cc1 | active: 25.9 µM |

Looked up by structure from the list above:

| Structure (SMILES) | Potency |
| --- | --- |
| Cc1ccc(NC(CC(=O)c2ccccc2)C(=O)O)cc1Cl (configuration not stated) | inconclusive: 11.6 µM [activator, partial curve] |
| CCc1nnc(NC(=O)CCC(=O)N2CCN(c3ccccn3)CC2)s1 | inactive |

The results go on:

| Structure (SMILES) | Potency |
| --- | --- |
| Cc1cccc(NC(=O)Nc2cccc(Oc3c(F)c(F)c(F)c(F)c3F)c2)c1 | inconclusive: 5.17 µM [falling, full curve, poor fit] |
| O=S(=O)(NCC1CCCO1)c1ccc(Oc2ccccc2)cc1 (configuration not stated) | inconclusive: 8.2 µM [falling, partial curve] |
| COc1ccc(C(C(=O)NC(C)(C)C)N(C(=O)CCC(=O)Nc2cc(C)on2)c2c(C)cccc2C)cc1 (configuration not stated) | inactive |
| NC(=O)CSc1oc(-c2cccs2)nc1S(=O)(=O)c1ccc(Br)cc1 | inconclusive: 0.651 µM [falling, single point] |
| COC(=O)c1ccc2nc(NC(=O)C(C)C)sc2c1 | inconclusive: 18.4 µM [activator, partial curve] |
| c1ccc(-c2ccccc2OCCCCn2ccnc2)cc1 | inconclusive: 23.1 µM [falling, partial curve, poor fit] |
| COc1ccc(S(=O)(=O)N2CCN(Cc3cccs3)CC2)cc1OC | inconclusive: 29.1 µM [falling, single point] |
| CC(=O)c1ccc2c(c1)N(C)c1ccccc1S2 | inconclusive: 6.51 µM [activator, single point] |
| Cc1cccc(CNc2ccc(C(CC(N)=O)NC(=O)c3ccccc3)cc2[N+](=O)[O-])c1 (configuration not stated) | inconclusive: 29.1 µM [falling, partial curve, poor fit] |
| Cc1ccc2nc(-c3ccncc3)c(NC3CCCC3)n2c1 | inconclusive: 14.6 µM [falling, partial curve] |
| COc1ccc(OC)c(N(CC(=O)NCc2ccccn2)S(C)(=O)=O)c1 | inconclusive: 0.92 µM [falling, full curve, poor fit] |
| O=C(CN1C(=O)C2CCCCC2C1=O)Nc1cccc(C(F)(F)F)c1 (configuration not stated) | inconclusive: 10.3 µM [activator, partial curve, poor fit] |
| CCOC(=O)CCC(=O)O[C@H]1[C@H](O[C@@H]2[C@@H](C)[C@H](O[C@H]3C[C@@](C)(OC)[C@@H](O)[C@H](C)O3)[C@@H](C)C(=O)O[C@H](CC)[C@@](C)(O)[C@H](O)[C@@H](C)C(=O)[C@H](C)C[C@@]2(C)O)O[C@H](C)C[C@@H]1N(C)C | inactive |
| COC(=O)c1cc(Cl)c(NC(=O)c2ccc(F)cc2)cc1OC | inconclusive: 25.9 µM [falling, single point] |
| Cc1cc(C(=O)Cn2cnc3ccccc3c2=O)c(C)n1C1CC1 | inconclusive: 6.51 µM [activator, partial curve] |
| O=C(Nc1ccc2c(c1)OCO2)Nc1ccccn1 | inconclusive: 8.2 µM [activator, single point] |
| O=C(NC12CC3CC(CC(C3)C1)C2)c1cccc(OC(F)F)c1 | inconclusive: 4.11 µM [activator, full curve] |
| Fc1ccc(-n2nnc(-c3cnc4ccccc4c3)n2)cc1 | inconclusive: 6.51 µM [activator, partial curve, poor fit] |
| O=C(c1cc(-c2ccc(Cl)c(Cl)c2)on1)N1CCOCC1 | inconclusive: 4.11 µM [activator, partial curve] |
| CC(=O)c1cnc(-c2cccc(Cl)c2)s1 | inconclusive: 8.2 µM [activator, partial curve, poor fit] |
| O=C(Nc1cccc2c1C(=O)NC2=O)c1cccc(N2C(=O)CCC2=O)c1 | inconclusive: 4.61 µM [activator, full curve] |

| Structure (SMILES) | Potency |
| --- | --- |
| O=C(NCCCc1cnc[nH]1)NCCCN(Cc1ccc(Cl)cc1)c1ccc(Br)cn1 | inconclusive: 2.59 µM [falling, partial curve] |
| CCc1cc(C(=O)OC)c(NC(=O)CSc2nccn2C)s1 | inactive |
| CN(Cc1ccccc1)c1nc2c(c(=O)[nH]c(=O)n2C)n1Cc1ccccc1 | inconclusive: 11.6 µM [falling, partial curve, poor fit] |
| Cc1ccc(-n2ncc3c(SCC(=O)NNC(=O)c4ccco4)ncnc32)cc1 | inconclusive: 14.6 µM [activator, partial curve] |
| O=C(OCCOc1ccc(Br)cc1)c1cnccn1 | inactive |
| COc1ccc(-c2nc(-c3ccccc3)c(-c3cc([N+](=O)[O-])ccc3C)[nH]2)cc1OC | inconclusive: 29.1 µM [falling, single point] |
| Cn1c(=O)oc2cc(S(=O)(=O)NC3CCN(Cc4ccccc4)CC3)ccc21 | inconclusive: 0.116 µM [falling, full curve, poor fit] |
| CSc1nc2c(C)c(C)c(C)c(C)c2[nH]1 | inconclusive: 29.1 µM [falling, single point] |
| O=C(Nc1nnc(Cc2ccccc2)s1)c1ccco1 | inconclusive: 2.91 µM [activator, full curve] |
| COc1cccc(NC(=O)CN(C)C(=O)CNC(=O)c2ccc(Oc3ccccc3)cc2)c1 | inconclusive: 29.1 µM [activator, single point] |
| CC(=O)c1ccc(NS(=O)(=O)c2cccc(C(=O)Nc3ccccc3C(=O)O)c2)cc1 | inconclusive: 20.6 µM [falling, single point] |
| CC(=O)c1sc(NC(=O)c2ccc(Br)o2)nc1C | inconclusive: 1.16 µM [activator, full curve] |
| COc1ccc(C2CC(=O)c3cc(-c4nc(-c5cccc([N+](=O)[O-])c5)cs4)c(=O)n(-c4ccc(F)cc4)c3C2)cc1 (configuration not stated) | inactive |
| CCN1CCN(CCCNC(=O)C2CCCN(c3nnc(-n4cccc4)s3)C2)CC1 (configuration not stated) | inconclusive: 7.31 µM [activator, partial curve, poor fit] |
| Cc1oc(-c2ccc(Cl)cc2)nc1CN1CCCC(C(=O)NCCc2ccccc2)C1 (configuration not stated) | inactive |
| Cc1cc(=O)[nH]c2c(C)cc(S(=O)(=O)N3CCOCC3)cc12 | inconclusive: 7.31 µM [falling, partial curve, poor fit] |
| CCC(C(=O)Nc1nccs1)c1ccccc1 (configuration not stated) | inconclusive: 3.66 µM [falling, partial curve, poor fit] |
| Nc1cc(=O)[nH]c(SCc2cccc(Cl)c2)n1 | inconclusive: 7.31 µM [falling, partial curve, poor fit] |
| O=C(NC(=S)Nc1cc(Cl)ccc1O)c1cccc(Br)c1 | inconclusive: 29.1 µM [falling, single point] |
| Cc1cccc(NC(=O)c2ccc(OCc3c(C)noc3C)cc2)c1C | inconclusive: 14.6 µM [falling, single point] |

Exported as labelled records: entries from further up.
O=C(OCCOc1ccc(Br)cc1)c1cnccn1
  Potency: inactive
COc1ccc(-c2nc(-c3ccccc3)c(-c3cc([N+](=O)[O-])ccc3C)[nH]2)cc1OC
  Potency: inconclusive: 29.1 µM [falling, single point]
Cn1c(=O)oc2cc(S(=O)(=O)NC3CCN(Cc4ccccc4)CC3)ccc21
  Potency: inconclusive: 0.116 µM [falling, full curve, poor fit]
CSc1nc2c(C)c(C)c(C)c(C)c2[nH]1
  Potency: inconclusive: 29.1 µM [falling, single point]
